# According to article PMC11858170:
# Results are given in words; binding and its absence hold for the method and conditions named. Binding seen in cells or lysates may run through a third protein. A result given as binding can be weak or reduced; the word gives no strength.
# Molecular target: T1, interleukin-4 receptor (IL-4 receptor α), rat (rat (endogenous in RBL2H3)) (UniProt Q63257)
# T1 sequence: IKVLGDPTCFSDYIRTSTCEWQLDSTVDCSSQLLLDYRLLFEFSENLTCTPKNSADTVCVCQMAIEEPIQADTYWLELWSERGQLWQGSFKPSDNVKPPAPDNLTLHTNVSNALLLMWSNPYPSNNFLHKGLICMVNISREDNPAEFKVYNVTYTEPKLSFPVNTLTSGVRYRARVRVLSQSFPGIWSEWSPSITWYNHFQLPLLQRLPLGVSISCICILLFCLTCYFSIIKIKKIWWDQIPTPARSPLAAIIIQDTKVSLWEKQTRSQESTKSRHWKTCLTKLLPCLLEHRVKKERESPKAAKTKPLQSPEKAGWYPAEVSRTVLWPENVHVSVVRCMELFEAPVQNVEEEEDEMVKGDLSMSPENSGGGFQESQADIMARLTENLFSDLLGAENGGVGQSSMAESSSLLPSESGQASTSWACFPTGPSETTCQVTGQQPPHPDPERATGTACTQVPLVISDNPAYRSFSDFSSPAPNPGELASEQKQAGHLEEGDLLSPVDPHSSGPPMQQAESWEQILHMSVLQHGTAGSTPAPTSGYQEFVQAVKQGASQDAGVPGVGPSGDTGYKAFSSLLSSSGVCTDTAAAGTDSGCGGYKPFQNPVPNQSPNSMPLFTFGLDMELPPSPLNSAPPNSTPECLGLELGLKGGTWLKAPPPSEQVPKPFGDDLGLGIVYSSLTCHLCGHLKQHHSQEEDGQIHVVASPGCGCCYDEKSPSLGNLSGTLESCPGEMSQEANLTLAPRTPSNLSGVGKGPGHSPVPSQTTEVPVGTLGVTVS
# Assay: co-IP; lysates of DNP-specific IgE-sensitized RBL2H3 cells, stimulated with DNP-HSA, without or with Roc-A (1 μM, 2 h) or chemical 1536801 (5 μM, 2 h); lysis buffer 50 mM Tris-HCl pH 6.8, 150 mM NaCl, 1% NP-40, 50 mM dithiothreitol; immunoprecipitation and immunoblot; isotype-matched IgG as control; which protein was precipitated is not told
substance,measurement,value
"Janus kinase 1 (JAK1), rat (enzyme)",binding,binds
